Results published in US20040266802A1, “Tricyclic analgesics” (priority 1999, published 2004).
pKi: −log10 of the molar value. At least one structure is not confirmed: it was looked up by name or label, or the drawing left a doubt.

Biological target: Na+ channel
Conditions: rat cerebral cortex synaptosomes, 10 nM [3H]batrachotoxin, 90 min at 25° C.; read-out: [3H] BTX assay: Na+ channel binding Ki

O=C1c2ccccc2CCC12CCN(CC1CC1)CC2 [Example 2, 1′-cyclopropylmethyl-3,4-Dihydro-1-oxospiro[naphthalene-2(1H),4′-piperidine]]
pKi: 6.06

O=C1c2ccccc2CCC12CCN(CCC1CC1)CC2 [Example 6, 1′-cyclopropylethyl-3,4-Dihydro-1-oxospiro[naphthalene-2(1H),4′-piperidine]]
pKi: 5.84

O=C1c2ccccc2CCC12CCN(C/C=C/c1ccccc1)CC2 [Example 7, 1′-cinnamyl-3,4-Dihydro-1-oxospiro[naphthalene-2(1H),4′-piperidine]]
pKi: 6.44

O=C1c2ccccc2CCC12CCN(CCC(c1ccccc1)c1ccccc1)CC2 [Example 8, 1′-(3,3-diphenylpropyl)-3,4-Dihydro-1-oxospiro[naphthalene-2(11H),4′-piperidine]]
pKi: 6.40

COc1ccc2c(c1)CCC1(CCN(CC3CC3)CC1)C2=O [Example 10, 1′-(cyclopropylmethyl)-3,4-Dihydro-6-methoxy-1-oxospiro[naphthalene-2(1H),4′-piperidine]]
pKi: 5.41
